Experimental data reported in PMC7819943, “Rice protein-binding microarrays: a tool to detect cis-acting elements near promoter regions in rice”.
Some of the results follow.

What follows are sequences tested against T1, OsSMF1 (Oryza sativa, UniProt Q6ZLB0 1-436) (assay: protein-binding microarray (RPBM); PBS, 2% BSA, 51.3 ng/ul salmon testes DNA, 50 uM zinc acetate, 200 nM TF, 25 C, 1 h; high values mean tight binding). Conditions: protein: recombinant; tags: N-terminal polyhistidine and DsRed monomer fusion (pET32a); chain copies: 2; label: CyDye5-dUTP incorporated in the synthesized complementary strand; 3' TTTTT single-stranded linker to array surface; dsDNA, one strand shown.
T1 sequence: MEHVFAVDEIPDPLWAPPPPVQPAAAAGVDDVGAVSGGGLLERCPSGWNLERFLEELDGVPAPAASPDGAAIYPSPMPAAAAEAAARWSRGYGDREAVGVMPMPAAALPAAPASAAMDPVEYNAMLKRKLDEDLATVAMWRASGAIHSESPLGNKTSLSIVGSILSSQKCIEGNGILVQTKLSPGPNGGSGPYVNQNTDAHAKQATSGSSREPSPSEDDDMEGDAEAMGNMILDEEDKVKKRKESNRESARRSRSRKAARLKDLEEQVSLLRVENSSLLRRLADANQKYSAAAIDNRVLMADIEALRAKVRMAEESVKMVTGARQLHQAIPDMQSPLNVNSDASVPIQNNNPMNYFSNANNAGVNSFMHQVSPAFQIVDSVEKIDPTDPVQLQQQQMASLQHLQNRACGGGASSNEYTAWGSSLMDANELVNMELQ
Outline: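 In PBS with 2% BSA, salmon testes DNA and 50 µM zinc acetate, 200 nM protein was incubated on a custom Agilent array at 25 °C for 1 h and then washed off. The array had been made double-stranded by primer extension with Cy5-dUTP and blocked with 2% BSA. The proteins were transcription factors fused N-terminally to polyhistidine and DsRed, expressed in E. coli BL21-CodonPlus and purified on Ni–NTA. The binding signal is per-feature fluorescence intensity (arbitrary units) from an Axon 4000B scanner.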
For “ATATCTCGTGTCATCTCTCCTTCATGCATACTGCTCAGTACGGAGTCACCTAGTGCAG”, the binding signal was 4000 fluorescence intensity (a.u.).
With “CAAAACCATCCATCTACACTTTTAAAGGAACTAATTTAACCGGAGTCACCTAGTGCAG” the binding signal was 3360 fluorescence intensity (a.u.).
For “CTTACTCTGTCGCCTACTAGTCCACCTCTCACTGTTGTTCCGGAGTCACCTAGTGCAG”, the binding signal was 3180 fluorescence intensity (a.u.).
For “ATTTTGGAGCTGCTACAATTGATTCTATGTTACGATTTGTCGGAGTCACCTAGTGCAG”, the binding signal was 27300 fluorescence intensity (a.u.).
With “CAAGTAAGTGGTCTGCCAGCGCGGCCTCCCTCCGCCTCCTCGGAGTCACCTAGTGCAG” the binding signal was 3490 fluorescence intensity (a.u.).
In the case of “ATCGTCCTGTCACTTGCCCATAATCGAACTGGACCTTGATCGGAGTCACCTAGTGCAG”, the binding signal is reported as 3350 fluorescence intensity (a.u.).
For “GACACCACCACAACGACGGCACCACCTCGTCCTTGCCATGCGGAGTCACCTAGTGCAG”, the binding signal was 4540 fluorescence intensity (a.u.).
In the case of “ATCTCAACTTTTAACGGTGCCACGTGGTCCAATCTGCAGCCGGAGTCACCTAGTGCAG”, the binding signal is reported as 7880 fluorescence intensity (a.u.).
“CTTGAGGCGCCGAAGTGACCTCTTCCACCGCGCCGCCGCCCGGAGTCACCTAGTGCAG” was tested, and the binding signal was 4660 fluorescence intensity (a.u.).
With “CTTCGTCTCCTCCTCCTCCACGTCATCCGCCTCCGCCTCCCGGAGTCACCTAGTGCAG” the binding signal was 26000 fluorescence intensity (a.u.).
“GGAAAGGCGCCACGTAATAAATAGAAACAGACTCAGCACTCGGAGTCACCTAGTGCAG” was tested, and the binding signal was 6760 fluorescence intensity (a.u.).
With “CCATATTGGCAATGTGACATGTCCTACATATGCTAAATTGCGGAGTCACCTAGTGCAG” the binding signal was 3350 fluorescence intensity (a.u.).
In the case of “CGTCCGCCCGTCCGTCCTGCAGAGAGACACATCACCGTGTCGGAGTCACCTAGTGCAG”, the binding signal is reported as 6210 fluorescence intensity (a.u.).
With “GCAGGCTGAATAAAACTGTATTGTCATCGATGATATTGGTCGGAGTCACCTAGTGCAG” the binding signal was 5020 fluorescence intensity (a.u.).
In the case of “CGCCTCACACCGCGGCCCCTCGCCACCGTCCCTGCGTCGCCGGAGTCACCTAGTGCAG”, the binding signal is reported as 3420 fluorescence intensity (a.u.).
For “CCATTCTCCGCCGTTGGATCCATCACCTCAATCAACATCACGGAGTCACCTAGTGCAG”, the binding signal was 3250 fluorescence intensity (a.u.).
With “CCTAATTAATCCGTCATTAGCAAATGTTTATTGTAGCACCCGGAGTCACCTAGTGCAG” the binding signal was 4220 fluorescence intensity (a.u.).
With “GAGGGAGAGAGAGAGAGAGGGGACACGAGATACGCGGAATCGGAGTCACCTAGTGCAG” the binding signal was 5220 fluorescence intensity (a.u.).
“GAGACGGCGAGCGGCTGACGTGATGTGGGTAGGAAGAACGCGGAGTCACCTAGTGCAG” was tested, and the binding signal was 31100 fluorescence intensity (a.u.).
With “AACAACAGATGCATCAGCACAACGAGATGCCTTCAATTGCCGGAGTCACCTAGTGCAG” the binding signal was 3230 fluorescence intensity (a.u.).
“TGGATTGGATTAGATAATTTCTCCAACTCAGCGTCACAAACGGAGTCACCTAGTGCAG” was tested, and the binding signal was 3140 fluorescence intensity (a.u.).
“TTCTTTCATCAATTACTAGGCCTAGATGGGTAATTTTGGTCGGAGTCACCTAGTGCAG” was tested, and the binding signal was 3200 fluorescence intensity (a.u.).
With “ATTCCAAAATCCCTTTCCCTCCACGACACCGCTTCCAGCCCGGAGTCACCTAGTGCAG” the binding signal was 23600 fluorescence intensity (a.u.).
With “TATATGTTAATGAATCTTGACACATATATAATAAACCGTGCGGAGTCACCTAGTGCAG” the binding signal was 4190 fluorescence intensity (a.u.).
With “GGCTTCCTCTCCGACTCCTCCTCCGATGACGAGGAGGGCGCGGAGTCACCTAGTGCAG” the binding signal was 3740 fluorescence intensity (a.u.).
In the case of “GGGCAGTGCCCCGTCCCCATCATCGCCGACGTCGACATCTCGGAGTCACCTAGTGCAG”, the binding signal is reported as 4370 fluorescence intensity (a.u.).
“TTGCAGTTGGGACCCAGCCGCCACACGTGCACAGGTCCATCGGAGTCACCTAGTGCAG” was tested, and the binding signal was 3690 fluorescence intensity (a.u.).
In the case of “CAGGTTCCTCGCCGGCTACGTCTCCGTCGGTAACCTGACGCGGAGTCACCTAGTGCAG”, the binding signal is reported as 34300 fluorescence intensity (a.u.).
With “TTAAAGTGCGCCATTGCCGCTCCGGTCGCGGCCCCTCCCTCGGAGTCACCTAGTGCAG” the binding signal was 3570 fluorescence intensity (a.u.).
In the case of “AGTCGTCGTCCTTCCCCGATGCGGCGATAGTCCACCGGGCCGGAGTCACCTAGTGCAG”, the binding signal is reported as 16600 fluorescence intensity (a.u.).
“CGTCTCGCCTTGCCCCGTCCACTAACCCTAGCGGCAACTGCGGAGTCACCTAGTGCAG” was tested, and the binding signal was 3160 fluorescence intensity (a.u.).
For “ACTCCACATTATGGCCGGCACATTTGTCATACTACCTACTCGGAGTCACCTAGTGCAG”, the binding signal was 3210 fluorescence intensity (a.u.).
“GCGTTATCCGCAGGATGACGTCATCCTCCTTGGTCTTCGCCGGAGTCACCTAGTGCAG” was tested, and the binding signal was 27800 fluorescence intensity (a.u.).
“AAGGTAGCCGTACGCGTCCTAACAATGTGACTCGTCCATACGGAGTCACCTAGTGCAG” was tested, and the binding signal was 4330 fluorescence intensity (a.u.).
“TCGTACATAATATATCAGAATTATACATAAATTTGGTTTTCGGAGTCACCTAGTGCAG” was tested, and the binding signal was 3140 fluorescence intensity (a.u.).
For “TTCGCTGTTTCAACCGTCCTTGACGTCAACGGTGACATGGCGGAGTCACCTAGTGCAG”, the binding signal was 9790 fluorescence intensity (a.u.).
“GTTTGCGAGGAATAGCGGGAACGATCCGCGCCACCACGAACGGAGTCACCTAGTGCAG” was tested, and the binding signal was 18000 fluorescence intensity (a.u.).
In the case of “AAGATTGCCACGTAACCGAACTGCTGCCACGCGGCCAATCCGGAGTCACCTAGTGCAG”, the binding signal is reported as 15900 fluorescence intensity (a.u.).
In the case of “AGTTTTCCCAACGTCAGAGGATCGTGACGTGGACGTGAGGCGGAGTCACCTAGTGCAG”, the binding signal is reported as 27500 fluorescence intensity (a.u.).
With “TAAACACAGCCTGATGCAAAACCTCCCTGAACTCTGTACTCGGAGTCACCTAGTGCAG” the binding signal was 24700 fluorescence intensity (a.u.).
In the case of “CATCGCCGTCGCCGATTCTCCCTTGTCTTCCTCCTCTTCGCGGAGTCACCTAGTGCAG”, the binding signal is reported as 3270 fluorescence intensity (a.u.).
“GCCCGCAACCCGCTGCCACGCTGCCCACCGCCGCTGCGCCCGGAGTCACCTAGTGCAG” was tested, and the binding signal was 4640 fluorescence intensity (a.u.).
